Experiment [1] concerns Saccharomyces cerevisiae HF7c pdr5Δ. Description: general growth inhibition of yeast HF7c pdr5Δ in -Leu -Trp medium, relative to DMSO; higher = stronger general growth inhibition. As to conditions: 100 µM; 24 h.
In experiment [2] the test system is human PEX3-PEX19 interaction (yeast two-hybrid). Nature of the experiment: growth inhibition of yeast two-hybrid strain reporting HsPex3-HsPex19 interaction, relative to DMSO; higher = stronger inhibition of human Pex3-Pex19 interaction / growth. As to conditions: 100 µM; 24 h; 3-aminotriazole 10 mM.
For experiment [3], the system named is T. brucei Pex3-Pex19 interaction (yeast two-hybrid). Description: growth inhibition of yeast two-hybrid strain reporting TbPex3-TbPex19 interaction, relative to DMSO; higher = stronger inhibition of T. brucei Pex3-Pex19 interaction / growth. As to conditions: 100 µM; 24 h.

Our source for the general growth inhibition and growth inhibition values is the supplement of paper PMC8326762, “A Small Molecule Inhibitor of Pex3–Pex19 Interaction Disrupts Glycosome Biogenesis and Causes Lethality in Trypanosoma brucei” (Frontiers in Cell and Developmental Biology, 2021).

SMILES strings stand for the structures. Counter-ions that a name gives are not always drawn. Some of the results follow. The data scatter; read single values as rough.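 Yeast growth was read as optical density at 600 nm. The two-hybrid strains grew without histidine, so growth needed the Pex3–Pex19 binding; a compound counted as trypanosome-selective if it cut growth of the trypanosome-pair strain by more than 65% and the human-pair strain by less than 65%.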

Consider `c1ccc2c(c1)[I+]c1ccccc1-2` [Diphenyleneiodonium chloride], for which the general growth inhibition in experiment [1] turned out to be 27.7%. Besides, the growth inhibition in experiment [2] was found to be 42.5%; in experiment [3], 68%.
For `COc1ccccc1N1CCNCC1` [1-(2-Methoxyphenyl)piperazine hydrochloride], in that order: 42.3%, 41.7% and 57.9%.
The like results for `C[N+](C)(C)CC#CCN1CCCC1=O` [Oxotremorine methiodide] were, in that order, 16.1%, 13.9% and 40.8%.
In turn, `CC(=O)NBr` [N-Bromoacetamide] registered a general growth inhibition in experiment [1] of 36.4%. In addition, the growth inhibition in experiment [2] was 38.8%; in experiment [3], 50.7%.
For the compound `O=P1(N(CCCl)CCCl)NCCCO1` (centres undefined) [Cyclophosphamide monohydrate], in experiment [1], the general growth inhibition was 8.18%. Besides, the growth inhibition was 2.78% in experiment [2] and 28.1% in experiment [3].
`C#CCN[C@H](C)Cc1ccccc1` [R-(-)-Desmethyldeprenyl hydrochloride] came in with a general growth inhibition in experiment [1] of 31%. For the same compound, the growth inhibition was 31.7% in experiment [2] and 52.3% in experiment [3].
The like results for `COc1ccc2[nH]c3c(c2c1)CCNC3` [6-Methoxy-1,2,3,4-tetrahydro-9H-pyrido[3,4b] indole] were, in that order, 7.23%, 10.9% and 31%.
In turn, `COc1ccc2c(c1)[C@]13CCCC[C@@H]1[C@H](C2)N(C)CC3` [Dextromethorphan hydrobromide monohydrate] came in with a general growth inhibition in experiment [1] of 24.4%. For the same compound, the growth inhibition in experiment [2] worked out at 45%; in experiment [3], 55.6%.
Take `C[C@]12CC[C@@H](O)C[C@@H]1CC[C@@H]1[C@@H]2CC[C@]2(C)[C@@H](C(=O)CO)CC[C@@H]12` [3-alpha,21-Dihydroxy-5-alpha-pregnan-20-one]: the general growth inhibition in experiment [1] is 57.4%. For the same compound, the growth inhibition in experiment [2] is 53.6%; in experiment [3], 64.8%.
Take `Cc1o[nH]c(=O)c1CC(N)C(=O)O` (racemic) [(±)-AMPA hydrobromide]: the general growth inhibition in experiment [1] amounted to 27.5%. Moreover, the growth inhibition amounted to 35.1% in experiment [2] and 60.7% in experiment [3].
The like results for `N#CCCN` [3-Aminopropionitrile fumarate] were, in that order, 50.8%, 46.9% and 56%.
`CCCN1C[C@H](CSC)C[C@@H]2c3cccc4[nH]cc(c34)C[C@H]21` [Pergolide methanesulfonate] yielded a general growth inhibition in experiment [1] of 57.5%. The growth inhibition amounted to 54.2% in experiment [2] and 65.3% in experiment [3].
As for `CS(=N)(=O)CC[C@H](N)C(=O)O` (stereo partly drawn) [L-Methionine sulfoximine], the general growth inhibition in experiment [1] is 30.2%. Besides, the growth inhibition in experiment [2] was 39%; in experiment [3], 53%.
`O=C(CCCN1CCC2(CC1)C(=O)NCN2c1ccccc1)c1ccc(F)cc1` [Spiperone hydrochloride] came in with a general growth inhibition in experiment [1] of 54.3%. In addition, the figures for the growth inhibition in experiment [2] and in experiment [3] were 31.7% and 60.3%, respectively.
For `CC(=O)c1c(O)c(C)c(O)c(Cc2c(O)c3c(c(C(=O)/C=C/c4ccccc4)c2O)OC(C)(C)C=C3)c1O` [Rottlerin], the general growth inhibition in experiment [1] was 43.8%. For the same compound, the growth inhibition turned out to be 16.6% in experiment [2] and 21.1% in experiment [3].
For `COc1ccc2c(c1OC)C(=O)OC2C1c2cc3c(cc2CCN1C)OCO3` (single isomer, unassigned; (+)) [(+)-Hydrastine], in that order: 36.6%, 19% and 61.7%.
The like results for `C[N+]1(C)CCOC(O)(c2ccc(-c3ccc(C4(O)C[N+](C)(C)CCO4)cc3)cc2)C1` (centres undefined) [Hemicholinium-3] were, in that order, 10.9%, 20.8% and 23.4%.
The like results for `C=CCN1C[C@H](C)N([C@H](c2ccc(C(=O)N(CC)CC)cc2)c2cccc(OC)c2)C[C@H]1C` were, in that order, 47.6%, 29.8% and 48.2%.
In turn, `CC1(C(=O)O)C2CCC(O2)C1(C)C(=O)O` (centres undefined) [Cantharidic Acid] had a general growth inhibition in experiment [1] of 77%. Also, the growth inhibition in experiment [2] is 63.2%; in experiment [3] it was 61.9%.
The like results for `N#CC(C#N)=Cc1ccc(O)c(O)c1` [Tyrphostin 23] were, in that order, 61.7%, 52.3% and 67.6%.
In experiment [1], `CC(C)C[C@H]1C(=O)N2CCC[C@H]2[C@]2(O)O[C@](NC(=O)[C@@H]3C=C4c5cccc6[nH]c(Br)c(c56)C[C@H]4N(C)C3)(C(C)C)C(=O)N12` [(+)-Bromocriptine methanesulfonate] displayed a general growth inhibition of 28.7%. The figures for the growth inhibition in experiment [2] and in experiment [3] were 19.8% and 34%, respectively.
In experiment [1], `CC(C)(C)NCC(O)c1ccccc1Cl` (centres undefined) [Tulobuterol hydrochloride] yielded a general growth inhibition of 49.7%. In addition, the values for the growth inhibition in experiment [2] and in experiment [3] were 47.8% and 67%, respectively.
For `NCCCP(=O)(O)O` [3-Aminopropylphosphonic acid], in that order: 30.8%, 34.5% and 53%.
The like results for `N#C/C(=C\c1ccc(O)c(O)c1)C(N)=S` [Tyrphostin 47] were, in that order, 40.1%, 38.2% and 53.1%.
For `C[N+]1(C)C2CCC1CC(OC(=O)c1c[nH]c3ccccc13)C2` (centres undefined) [3-Tropanylindole-3-carboxylate methiodide], in that order: 12.5%, 12.6% and 37.2%.
Turning to `CN1CCc2cc(O)cc3c2[C@H]1Cc1ccc(O)c(O)c1-3` [R(-)-2,10,11-Trihydroxyaporphine hybrobromide], the general growth inhibition in experiment [1] is 30.5%. Moreover, the growth inhibition in experiment [2] is 41.1%; in experiment [3], 60.7%.
As for `O=c1[nH]c2ccccc2n1CCCN1CCC(n2c(=O)[nH]c3cc(Cl)ccc32)CC1` [Domperidone], the general growth inhibition in experiment [1] was 33.2%. The growth inhibition in experiment [2] came to 28.4%; in experiment [3] it was 62.4%.
The like results for `O=C(O)Cc1cnc[nH]1` [Imidazole-4-acetic acid hydrochloride] were, in that order, 34.4%, 40% and 61.6%.
The like results for `CC(C)=CCOc1c2occc2cc2ccc(=O)oc12` [Imperatorin] were, in that order, 41.9%, 48.2% and 29.9%.
For `CC(O)(CS(=O)(=O)c1ccc(F)cc1)C(=O)Nc1ccc(C#N)c(C(F)(F)F)c1` (centres undefined) [Bicalutamide (CDX)], in that order: 53.5%, 47.6% and 68.8%.
On to `NCC(CP(=O)(O)O)c1ccc(Cl)cc1` (centres undefined) [Phaclofen], for which the general growth inhibition in experiment [1] was 18.1%. Moreover, the growth inhibition is 15.2% in experiment [2] and 41.1% in experiment [3].
For `CC(Cc1ccc(OCC(=O)O)cc1)NCC(O)c1cccc(Cl)c1` (centres undefined), in that order: 48.6%, 55.3% and 66.6%.
For the compound `CC[C@@]1(O)C(=O)OCc2c1cc1n(c2=O)Cc2cc3ccccc3nc2-1` [(S)-(+)-Camptothecin], in experiment [1], the general growth inhibition turned out to be 21.4%. Also, the growth inhibition in experiment [2] came to 11.7%; in experiment [3], 35.8%.
For `NCc1cc(O)no1` [Muscimol hydrobromide], in that order: 33.8%, 39.6% and 52.5%.
For `CC(=O)[C@H]1CC[C@H]2[C@@H]3CC[C@H]4C[C@H](O)CC[C@]4(C)[C@H]3CC[C@]12C` [5alpha-Pregnan-3alpha-ol-20-one], in that order: 53.7%, 38.7% and 51.1%.
Take `CC(C)(C)c1cc(C(C)(C)C)c2c(c1)C(O)(C(F)(F)F)C(=O)O2` (racemic): in experiment [1], the general growth inhibition amounted to 88.8%. In addition, the growth inhibition in experiment [2] is 85.1%; in experiment [3], 82.3%.
The like results for `CC(=O)O[C@H]1C[C@@H]2CC[C@@H]3[C@H](CC[C@@]4(C)[C@H]3C[C@H]([N+]3(C)CCCCC3)[C@@H]4OC(C)=O)[C@@]2(C)C[C@@H]1[N+]1(C)CCCCC1` [Pancuronium bromide] were, in that order, 42.5%, 46.4% and 63.2%.
For `S=C(NC1CCCCC1)N1CCC(c2cnc[nH]2)CC1` [Thioperamide maleate], in that order: 53.5%, 57% and 62.5%.
For `c1ccc(C2(c3ccccc3)CC2C2=NCCN2)cc1` (centres undefined) [Cibenzoline succinate], the general growth inhibition in experiment [1] worked out at 50.6%. In addition, the growth inhibition in experiment [2] came to 46.5%; in experiment [3], 69.2%.
The compound `COc1cc(C(O)CN)ccc1O` (racemic) [(±)-Normetanephrine hydrochloride] yielded a general growth inhibition in experiment [1] of 52.9%. Also, the growth inhibition in experiment [2] was determined as 40.5%; in experiment [3], 67.3%.
For `O=c1[nH]oc2c1CCNC2` [THIP hydrochloride], in that order: 51.3%, 46.9% and 64.1%.
The like results for `CC(=O)NCCc1c[nH]c2ccccc12` [N-Acetyltryptamine] were, in that order, 39.9%, 38.5% and 56%.
`CCCN1CCC[C@H](c2cccc(O)c2)C1` [R(+)-3PPP hydrochloride] registered a general growth inhibition in experiment [1] of 51.9%. Further, the growth inhibition in experiment [2] was 51%; in experiment [3], 70.3%.
